Reference: PubChem BioAssay AID1159578 (Peter MacCallum Cancer Centre, 2015)

- Test: 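Knock-downs that alter how fast lymphatic endothelial cells migrate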 (primary screen)
- Cell system: human lymphatic endothelial cells
- Reagent: siRNA pool against human genes, 40 nM
- Time to read-out: 48 h after transfection
- Read-out: 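Cells stained with dye and imaged after a scratch; covered wound area and nuclei counted, duplicates averaged, migration set against mock wells and turned into a robust z-score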
- Scale: migration robust z-score: higher = faster migration into the scratch; migration relative to mock: higher = more scratch area covered than mock; nuclei per well: higher = more cells in the well
- Active means: 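Pools averaging fewer than 3300 nuclei are never called; remaining pools count as changed when migration robust z lies outside -2 to 2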
- Meaning of the calls: active = migration changed; inactive = no migration change, or too few cells
In all, the deposit lists about 18,000 reagents; below is a part drawn at random. Of all reagents, about 1,030 (5.7%) are marked active. 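Inactive calls also include pools with fewer than 3300 nuclei, whose migration was not assessed.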 Raw values are not corrected between plates. Reagent sequences are not shown.

The opening 6 records, ahead of the listing:
gene,migration robust z-score,migration class with cell-count check,migration relative to mock,"nuclei per well, duplicate mean",activity call
TCF21,0.1,migration z between -2 and 2; enough cells,0.82,5535,inactive
CXCL13,1.52,migration z between -2 and 2; enough cells,1.27,5820,inactive
YIPF7,-1.49,migration z between -2 and 2; enough cells,0.5,6448,inactive
PACS2,0.17,migration z between -2 and 2; enough cells,0.93,6300,inactive
CRACDL,0.1,migration z between -2 and 2; enough cells,0.92,5312,inactive
HSPA5,-2.29,migration z below -2; enough cells,0.36,5943,active

Main list, repeating the preview:
gene,migration robust z-score,migration class with cell-count check,migration relative to mock,"nuclei per well, duplicate mean",activity call
TCF21,0.1,migration z between -2 and 2; enough cells,0.82,5535,inactive
CXCL13,1.52,migration z between -2 and 2; enough cells,1.27,5820,inactive
YIPF7,-1.49,migration z between -2 and 2; enough cells,0.5,6448,inactive
PACS2,0.17,migration z between -2 and 2; enough cells,0.93,6300,inactive
CRACDL,0.1,migration z between -2 and 2; enough cells,0.92,5312,inactive
HSPA5,-2.29,migration z below -2; enough cells,0.36,5943,active
IHO1,-0.39,migration z between -2 and 2; enough cells,0.78,6986,inactive
MCOLN1,-0.57,migration z between -2 and 2; enough cells,0.7,5060,inactive
CLLU1-AS1,-0.58,migration z between -2 and 2; enough cells,0.74,5795,inactive
PLEKHA1,0.37,migration z between -2 and 2; enough cells,0.98,6162,inactive
ARL11,2.83,migration z above 2; enough cells,1.62,6242,active
HOXC9,0.9,migration z between -2 and 2; enough cells,0.98,5105,inactive
ILF2,0.18,migration z between -2 and 2; enough cells,0.84,4265,inactive
KLHL1,-2.1,migration z below -2; enough cells,0.33,3576,active
CMC2,3.78,migration z above 2; enough cells,1.87,5319,active
BMP1,0.67,migration z between -2 and 2; enough cells,0.93,5897,inactive
CD300C,-1.79,migration z between -2 and 2; enough cells,0.46,5340,inactive
PGD,0.44,migration z between -2 and 2; enough cells,0.89,5622,inactive
OR2B2,1.66,migration z between -2 and 2; enough cells,1.31,7054,inactive
SMYD5,0.16,migration z between -2 and 2; enough cells,0.84,6971,inactive
NOP9,0.67,migration z between -2 and 2; enough cells,1.06,7014,inactive
RPS17P16,0.44,migration z between -2 and 2; enough cells,1,6186,inactive
FHL3,0.46,migration z between -2 and 2; enough cells,1,5550,inactive
LILRA6,0.92,migration z between -2 and 2; enough cells,1.12,5961,inactive
CHRND,-0.1,migration z between -2 and 2; enough cells,0.78,5650,inactive
RIPPLY2,-1.25,migration z between -2 and 2; enough cells,0.56,5001,inactive
C4BPA,-0.01,migration z between -2 and 2; enough cells,0.89,4789,inactive
PNP,1.35,migration z between -2 and 2; enough cells,1.06,6480,inactive
ABCC4,1.03,migration z between -2 and 2; enough cells,1,5761,inactive
CRLS1,0.88,migration z between -2 and 2; enough cells,0.98,6568,inactive
SNRPB2,-0.88,migration z between -2 and 2; enough cells,0.66,5520,inactive
RHOH,0.02,migration z between -2 and 2; enough cells,0.89,6735,inactive
CHL1,0.7,migration z between -2 and 2; enough cells,1.07,6879,inactive
UBASH3A,0.85,migration z between -2 and 2; enough cells,1.1,5783,inactive
TPSAB1,0.47,migration z between -2 and 2; enough cells,1,6948,inactive
PSMD12,-1.07,migration z between -2 and 2; enough cells,0.6,5772,inactive
PGAP4,-1.27,under 3300 nuclei; migration not judged,0.55,3294,inactive
SLC30A3,-0.08,migration z between -2 and 2; enough cells,0.86,5860,inactive
PELP1,0.01,migration z between -2 and 2; enough cells,0.9,4364,inactive
TMEM179,-0.09,migration z between -2 and 2; enough cells,0.86,5664,inactive
HAUS2,-1.17,migration z between -2 and 2; enough cells,0.58,4892,inactive
SHISA2,0.54,migration z between -2 and 2; enough cells,1.02,5206,inactive
GTF2IRD2B,-0.66,migration z between -2 and 2; enough cells,0.71,5396,inactive
ABT1,0.1,migration z between -2 and 2; enough cells,0.82,7188,inactive
FAM174A,0.26,migration z between -2 and 2; enough cells,0.95,6365,inactive
FCGR2A,-1.35,migration z between -2 and 2; enough cells,0.54,5642,inactive
IFIT1B,0.92,migration z between -2 and 2; enough cells,1.12,6208,inactive
TTC16,0.02,migration z between -2 and 2; enough cells,0.89,6260,inactive
GTF2H1,-0.26,migration z between -2 and 2; enough cells,0.76,5636,inactive
ATAD3C,-0.71,migration z between -2 and 2; enough cells,0.7,6579,inactive
SMG8,0.29,migration z between -2 and 2; enough cells,0.96,5380,inactive
XPO5,0.48,migration z between -2 and 2; enough cells,1.01,5940,inactive
HTR1E,-1.29,migration z between -2 and 2; enough cells,0.55,3908,inactive
CHRD,-1.04,migration z between -2 and 2; enough cells,0.62,4590,inactive
RNF121,0.29,migration z between -2 and 2; enough cells,0.86,5204,inactive
PSMC3IP,-0.24,migration z between -2 and 2; enough cells,0.82,7038,inactive
DNTTIP2,-0.16,migration z between -2 and 2; enough cells,0.84,3926,inactive
ETF1,-0.88,migration z between -2 and 2; enough cells,0.64,6148,inactive
SH3GL3,0.68,migration z between -2 and 2; enough cells,1.06,4844,inactive
FTSJ3,-0.94,migration z between -2 and 2; enough cells,0.64,6204,inactive
STEEP1,0.86,migration z between -2 and 2; enough cells,1.11,5868,inactive
CENPW,0.98,migration z between -2 and 2; enough cells,1.14,5036,inactive
DNAH3,0.1,migration z between -2 and 2; enough cells,0.82,5876,inactive
ZNF221,-1.15,migration z between -2 and 2; enough cells,0.58,5950,inactive
ADGRA2,-0.6,migration z between -2 and 2; enough cells,0.69,5894,inactive
OR4A5,-0.79,migration z between -2 and 2; enough cells,0.68,5799,inactive
WHR1,-0.32,migration z between -2 and 2; enough cells,0.74,5104,inactive
RBMXL2,-0.78,migration z between -2 and 2; enough cells,0.68,6235,inactive
MPZ,0.36,migration z between -2 and 2; enough cells,0.98,5798,inactive
ADCY3,0.26,migration z between -2 and 2; enough cells,0.86,6336,inactive
PLSCR3,-0.88,migration z between -2 and 2; enough cells,0.64,4348,inactive
YBEY,-1.91,migration z between -2 and 2; enough cells,0.38,4840,inactive
COPA,-0.91,migration z between -2 and 2; enough cells,0.65,5659,inactive
